This is an account of results in article PMC12040169 (PLOS Biology, 2025).

SMILES strings stand for the structures. Some of the results follow.

In this test the test system is T1, CTL2-GFP (C. trachomatis L2/434/Bu, GFP-expressing).
T1 construct: L2/434/Bu, GFP-expressing
Further details: species or system HeLa; Intracellular C. trachomatis growth in HeLa cells, bulk GFP fluorescence relative to DMSO. The note with it: bulk GFP, single well; 28.5 h, 10 µM; inhibitor.
As to `Cc1ccccc1C(c1cnccn1)N(C)C(=O)C1CCN(C(=O)c2ccccc2)CC1` (centres unmarked) [CBK060208], the “% of control remaining” value amounted to 109.507%.
To `CC(C)CSc1nnc(-c2ccccc2F)n1CC(C)C` [CBK200091] belongs 120.302%.
Consider `O=C(NC(=S)Nc1ccccc1)c1cncc(Br)c1` [CBK092040], for which the “% of control remaining” value is 138.316%.
In the case of `COCCCN(Cc1ccccn1)Cc1cccc(F)c1F` [CBK282947] it was 130.766%; in that of `CC(C)Nc1nccnc1Sc1cccc(C(=O)O)c1` [CBK093581], 92.4323%; in that of `COc1ccc(NC(=O)c2cnn3c2NC(C(=O)O)=CC3c2ccccc2)cc1` (centres unmarked) [CBK287240], 129.095%.
To `Cc1nc2ncccn2c1-c1csc(Nc2ccc(S(N)(=O)=O)cc2)n1` [CBK263294B] belongs 124.692%; to `Cn1cnnc1SC1c2cccc3cccc(c23)C1NS(=O)(=O)c1ccc(Cl)cc1` (centres unmarked) [CBK264707], 114.213%; to `Cc1cccc(CN2CCC(NC(=O)NCc3ccn(C)c3)CC2)c1` [CBK305259], 152.133%.
To `COc1ccc(OCC(=O)N/N=C/c2ccc([N+](=O)[O-])s2)c(I)c1` [CBK261374] belongs 100.395%; to `O=C1NCC(C2CCN(Cc3ccccc3)CC2)Oc2ccccc21` (centres unmarked) [CBK282314], 148.735%.
With `Cc1ccc(OCC(O)CN2CCC(C(N)=O)CC2)cc1C` (centres unmarked) [CBK057100], the “% of control remaining” value is recorded as 121.191%.
In the case of `CSCCN1CCC(Oc2nccnc2OCc2cccnc2)CC1` [CBK083173] it was 127.108%; in that of `Cc1cccc2c3c([nH]c12)C1(CCN(CC2CC2)C1)NCC3` (centres unmarked) [CBK039520], 101.245%; in that of `CCc1c(C)nc2c(N3CCOC3=O)cccc2c1SCCC(=O)O` [CBK159595T], 121.43%.
`CCOC(=O)c1[nH]c(C)c(/C=C/C2=CCN(C)CC2)c1C` [CBK283761]: the “% of control remaining” value was determined as 156.761%.
Regarding `Cc1[nH]c(=O)[nH]c(=S)c1C(=O)Nc1ccc2[nH]c(C(F)(F)F)nc2c1` [CBK115494], the “% of control remaining” value stood at 103.314%.
On to `COC(=O)c1cccc(N(C)S(=O)(=O)c2sc3ccc(Cl)cc3c2C)c1` [CBK160390], for which the “% of control remaining” value is listed as 122.879%.
Take `CCOC(=O)CCNC(=O)N(CC)Cc1ccccc1` [CBK155228]: the “% of control remaining” value is recorded as 104.061%.
To `CN1C=NC2C1C(=O)N(CCn1c(=O)c3c(ncn3C)n(C)c1=O)C(=O)N2C` (centres unmarked) [CBK268678] belongs 88.3803%.
`CN1CCC(N(C)C(=O)NC(c2ccccc2)c2ccccc2)C1` (centres unmarked) [CBK156000]: the “% of control remaining” value worked out at 94.5358%.
On to `CCOC(=O)c1sc(-c2ccccc2)nc1O` [CBK074298], for which the “% of control remaining” value worked out at 85.5452%.
With `FC(F)(F)c1nc2ccccc2nc1Sc1ccncc1` [CBK093773], the “% of control remaining” value turned out to be 100.226%.
For the molecule `O=C(CN1CCCCCC1=O)Nc1nc(-c2ccccc2F)cs1` [CBK281408], the “% of control remaining” value stood at 99.0316%.
As for `O=c1[nH]c(=O)c2cc(S(=O)(=O)Nc3ccccc3Cc3ccccc3)ccc2[nH]1` [CBK286377], the “% of control remaining” value is reported as 72.741%.
In the case of `CC(C)NC(=O)[C@@H](C)C1CC[C@@]2(C)CC[C@H](NC(=O)C3CC3)[C@@H](C)[C@@H]2[C@H]1O` (some centres unmarked) [CBK289444], the “% of control remaining” value was found to be 137.25%.
Regarding `COc1ccc(OC(=O)c2csc(Cc3c(Cl)cccc3Cl)n2)cc1` [CBK083573], the “% of control remaining” value is on record as 99.4694%.
As for `Cc1cccn2c(=O)cc(CN3CCC(c4ccn[nH]4)CC3)nc12` [CBK305951], the “% of control remaining” value turned out to be 143.62%.
In the case of `O=C1CCc2cc(S(=O)(=O)Nc3cccc(-c4ccc(F)cc4)c3)ccc2N1` [CBK286371] it was 81.6844%; in that of `Cc1cc(N2CCOC(c3cccs3)C2)ccn1` (centres unmarked) [CBK304691], 102.762%.
Consider `COc1cccc(/C=C2/SC(=S)NC2=O)c1OCCCOc1ccc(C)cc1C` [CBK264441], for which the “% of control remaining” value was 136.504%.
In the case of `Cn1cc(C(=O)NC(Cc2cccs2)c2ccccn2)ccc1=O` (centres unmarked) [CBK285209], the “% of control remaining” value was 95.7458%.
Turning to `COC(=O)c1ccc(-c2ccc(F)cc2OC)nc1` [CBK149230], the “% of control remaining” value is reported as 108.785%.
For the molecule `CC(C)Nc1cc(OCc2ccc(-c3ccccc3)cc2)ncn1` [CBK115658], the “% of control remaining” value was found to be 99.4174%.
In the case of `N#Cc1c(C(F)(F)F)cc(-c2cccs2)nc1SCC(O)CN1CCSCC1` (centres unmarked) [CBK265947], the “% of control remaining” value is on record as 122.983%.
With `COC(=O)c1cn([C@H]2CO[C@H]3[C@@H]2OC[C@@H]3NC(=O)Nc2cccc(C(F)(F)F)c2)nn1` [CBK289501], the “% of control remaining” value is on record as 121.83%.
For `COc1c(Br)cc2c(cc(C)n2-c2ccccc2)c1OCC(O)CNC(C)C` (centres unmarked) [CBK263516], the “% of control remaining” value came out at 10.8995%.
For `CCC(Sc1nccn1C)C(=O)Nc1ccc(S(N)(=O)=O)cc1` (centres unmarked) [CBK058413], the “% of control remaining” value was found to be 85.4441%.
With `Fc1ccccc1-c1nc2cnccn2c1NCc1cccs1` [CBK282332], the “% of control remaining” value came out at 113.373%.
To `O=C(Nc1ccc(N2CCOCC2)c2nonc12)c1cc(-c2cccnc2)nc2ccc(Cl)cc12` [CBK267724] belongs 109.96%; to `Cc1ccc(C)c(NC(=O)Cc2nc(CN3CCNC(=O)C3)cs2)c1` [CBK305071], 119.17%; to `CC1=NN(C(=O)C2CC2)C(=O)C1Cc1ccc(F)cc1` (centres unmarked) [CBK083561], 128.941%.
As to `COc1ccc(-c2nc3cc(NC(=O)C(c4ccccc4)c4ccccc4)ccc3o2)cc1` [CBK264980], the “% of control remaining” value is on record as 100%.
In the case of `Cc1cn([C@H]2C[C@@H](O)[C@@H](CO)O2)c(=O)n(CCC#N)c1=O` [CBK201322] it was 128.222%; in that of `Cc1cc(CN2CC3CCCN3C[C@@H]2C)c(C)n1CC1CCCO1` (some centres unmarked) [CBK285419], 131.929%.
To `O=C(c1cnn(-c2ccc(Cl)cc2)c1C(F)(F)F)N1CCN(c2ncccn2)CC1` [CBK107448] belongs 100%; to `O=S(=O)(NC1c2cccc3cccc(c23)C1Sc1ccccn1)c1ccc(Cl)cc1` (centres unmarked) [CBK264073], 125.535%; to `O=C(c1ccccc1F)N1CC2CCCC(C1)C2N1CCOCC1` (centres unmarked) [CBK285262], 138.341%.
In the case of `O=C(O)CCC(=O)NCCc1ccc(Cl)cc1` [CBK287165] it was 108.916%.
Turning to `Cc1ccc(CN(CCCn2ccnc2)Cc2ccncc2)o1` [CBK283101], the “% of control remaining” value came out at 80.2384%.
To `Cc1ccc(C)c(C2CCCN2C(=O)Cn2cc(C(=O)NCc3ccccc3)ccc2=O)c1` (centres unmarked) [CBK286052] belongs 88.0655%; to `O=C(c1ccccc1)N1C[C@H](c2ccc(F)cc2)[C@H]2CN(Cc3ccccc3F)CC[C@H]21` [CBK286289], 82.0108%.
In the case of `Cc1ccc(C)c(C(=O)C2=C(O)C(=O)N(CCCN3CCOCC3)C2c2ccncc2)c1` (centres unmarked) [CBK265492], the “% of control remaining” value was 126.244%.
In the case of `CCc1nc2ccc(C(=O)N3CCN(c4ccccc4)CC3)cn2c1N(C)C(=O)Nc1ccccc1OC` [CBK145886] it was 170.375%; in that of `CN1CCN(CCOC(=O)N2CCC(C(F)(F)F)CC2)CC1` [CBK200206], 118.886%.
As to `Cc1nnc(SCC(=O)NC(C)(C)C)n1NCc1cccc(Br)c1` [CBK266517], the “% of control remaining” value is reported as 91.3003%.
For the molecule `O=C(CSc1nnc(Nc2ccccc2)n1-c1ccccc1)Nc1ccc2c(c1)COC2=O` [CBK268298], the “% of control remaining” value was 155.858%.
Consider `COc1cc(C(=O)N2CCC3(CC2)CC(=O)c2ccc(-c4ccccc4)cc2O3)cc(OC)c1C` [CBK169037], for which the “% of control remaining” value worked out at 80.7885%.
As for `NC(=O)C1CCN(c2ncnc3c2oc2ccccc23)CC1` [CBK287789], the “% of control remaining” value is recorded as 125.54%.
In the case of `CCOc1ccc2c(c1)-c1c(ssc1=S)C(C)(C)N2C(=O)CSc1nnc[nH]1` [CBK262680] it was 108.891%; in that of `O=C(Oc1ccccc1)c1cc(S(=O)(=O)N2CCOCC2)c(Cl)cc1Cl` [CBK269656], 168.969%; in that of `COc1cccc(-c2ccc(NC(=O)CCC3C(=O)Nc4ccccc43)cc2)c1` (centres unmarked) [CBK285851], 98.4017%.
To `C/C(=N/OCC(=O)N/N=C/c1sc2ccccc2c1O)c1ccccc1` [CBK262266] belongs 126.121%.
As to `Cc1nc(C2CCCN(C(=O)c3cscn3)C2)c2sccn12` (centres unmarked) [CBK282236], the “% of control remaining” value stood at 133.217%.
As to `Cc1cc(N2C(=O)c3ccc(Oc4ccc5c(c4)C(=O)N(c4cc(C)on4)C5=O)cc3C2=O)no1` [CBK266463], the “% of control remaining” value is given as 148.534%.
In the case of `c1cncc(-c2nccnc2N2CCN(c3ccncc3)CC2)c1` [CBK036965], the “% of control remaining” value amounted to 247.774%.
Turning to `O=C(NCCn1cccn1)N1CCCN(Cc2ccncc2)CC1` [CBK307129], the “% of control remaining” value stood at 136.309%.
In the case of `Cn1cc(CCNC(=O)Nc2ccc(N3CCCC3)nc2)cn1` [CBK305659] it was 93.7345%; in that of `CC(=C\C(=O)O)/C(=C/c1ccc2ccccc2n1)C(=O)O` [CBK278294N], 100%; in that of `Cc1ccc2c(c1)C(C[C@H]1CN(C(=O)C3CCCC3)CC[C@H]1CC(=O)O)=NCC2` [CBK289163], 143.497%.
In the case of `O=S(=O)(c1ccc2nc(-c3ccccc3)c(-c3ccc(O)cc3)nc2c1)c1ccc2nc(-c3ccccc3)c(-c3ccc(O)cc3)nc2c1` [CBK261148] it was 100.734%.
With `OCCN(CCO)c1cncc(-c2cccs2)n1` [CBK065766], the “% of control remaining” value amounted to 182.524%.
Consider `O=C(c1cccs1)N1C[C@@H]2C[C@H](C1)c1c(-c3cncnc3)ccc(=O)n1C2` [CBK289194], for which the “% of control remaining” value is 127.396%.
With `COC(=O)Cc1ccc(NC(=S)Nc2ccc(N3CCOCC3)cc2)cc1` [CBK267211], the “% of control remaining” value was determined as 158.193%.
In the case of `CC1CCN(c2ccc(C(C)NC(=O)Cn3cccn3)cc2)CC1` (centres unmarked) [CBK281725], the “% of control remaining” value is 142.694%.
For the molecule `COc1c(C)cc(-c2[nH]c(C)nc2C)cc1C` [CBK306941], the “% of control remaining” value stood at 135.439%.
Take `O=C(O)CSc1nnc(-c2ccncc2)n1-c1ccc(Cl)cc1` [CBK266686]: the “% of control remaining” value is 107.94%.
